Source: patent publication US20120258107A1

The chains behind the UniProt entries cited, without tags or fusion partners. Where a name states a change or a piece, a line headed by the entry shows the natural chain unless it says otherwise.
UniProt Q86VB7: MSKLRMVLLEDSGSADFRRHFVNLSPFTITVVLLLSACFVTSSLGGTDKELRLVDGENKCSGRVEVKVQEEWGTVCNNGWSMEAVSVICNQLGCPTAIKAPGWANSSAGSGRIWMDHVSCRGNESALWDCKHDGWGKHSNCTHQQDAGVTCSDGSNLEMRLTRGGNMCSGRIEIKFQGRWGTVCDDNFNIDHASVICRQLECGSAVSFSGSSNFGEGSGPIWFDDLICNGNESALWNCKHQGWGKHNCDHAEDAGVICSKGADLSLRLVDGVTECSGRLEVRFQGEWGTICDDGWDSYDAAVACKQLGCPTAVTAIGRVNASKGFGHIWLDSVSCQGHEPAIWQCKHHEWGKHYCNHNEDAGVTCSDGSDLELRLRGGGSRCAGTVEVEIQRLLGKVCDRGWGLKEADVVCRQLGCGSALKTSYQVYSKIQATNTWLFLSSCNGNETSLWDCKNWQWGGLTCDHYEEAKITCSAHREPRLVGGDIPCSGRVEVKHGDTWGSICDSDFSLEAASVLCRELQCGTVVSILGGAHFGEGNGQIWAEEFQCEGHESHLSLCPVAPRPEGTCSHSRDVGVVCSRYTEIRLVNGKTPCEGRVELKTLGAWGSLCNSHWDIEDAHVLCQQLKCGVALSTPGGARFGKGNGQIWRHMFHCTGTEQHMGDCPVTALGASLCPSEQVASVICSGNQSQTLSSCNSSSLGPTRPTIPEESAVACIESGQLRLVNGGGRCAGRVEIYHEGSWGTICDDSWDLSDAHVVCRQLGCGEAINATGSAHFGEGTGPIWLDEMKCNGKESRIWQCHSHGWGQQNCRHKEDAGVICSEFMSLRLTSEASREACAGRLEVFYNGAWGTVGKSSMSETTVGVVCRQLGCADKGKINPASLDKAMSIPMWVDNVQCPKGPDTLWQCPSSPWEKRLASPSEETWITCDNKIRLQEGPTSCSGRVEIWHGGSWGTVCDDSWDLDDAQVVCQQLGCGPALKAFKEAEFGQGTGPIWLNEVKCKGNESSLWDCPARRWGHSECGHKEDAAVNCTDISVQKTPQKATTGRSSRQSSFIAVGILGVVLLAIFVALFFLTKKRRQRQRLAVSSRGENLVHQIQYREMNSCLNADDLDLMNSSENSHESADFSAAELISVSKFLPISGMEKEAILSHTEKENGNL

Legend:
[1] = target: human CD163 (purified, coated on ELISA plate) (human) (UniProt Q86VB7); assay: ELISA, CD163 coated plate, CHO-S supernatant
[2] = target: human CD163 (purified, coated on ELISA plate) (human) (UniProt Q86VB7); assay: ELISA, CD163 coated plate; the sample held about twice as much antibody as cgamma(6)/NRY
[3] = target: human CD163 (purified, coated on ELISA plate) (human) (UniProt Q86VB7); assay: ELISA on CD163 coated wells, supernatant of transfected cells in two fold dilutions, goat anti-human IgG (H&L) HRP; the right four bar groups are taken as the CD163 wells

binding [1]: binds
binding [2]: binds
binding [3]: binds
B1: cgamma(6)/K8 (antibody)
VH: DVQLQESGPGLVKPSQSLSLTCTVTGYSITSDYAWNWIRQFPGNKLEWMGYITYSGITNYNPSLKSQISITRDTSKNQFFLQLNSVTTEDTATYYCVSGTYYFDYWGQGTTLTVSS
light: DIVMTQSPSSLSASVGDRVTITCRASQSVSSDVAWFQQKPGKSPKPLIYYASSLQSGVPSRFSGSGSGTDFTLTISSLQAEDFAVYFCGQDYTSPRTFGGGTKLEIKRTVAAPSVFIFPPSDEQLKSGTASVVCLLNNFYPREAKVQWKVDNALQSGNSQESVTEQDSKDSTYSLSSTLTLSKADYEKHKVYACEVTHQGLSSPVTKSFNRGEC

These are yes or no findings as the source states them, for the method shown. Binding can be weak; no strength is given.
